## Screening data, single-dose tests

Chains of the proteins cited; added tags and fusions are not shown. Residues count along the entry.
UniProt A4I591, 1-473: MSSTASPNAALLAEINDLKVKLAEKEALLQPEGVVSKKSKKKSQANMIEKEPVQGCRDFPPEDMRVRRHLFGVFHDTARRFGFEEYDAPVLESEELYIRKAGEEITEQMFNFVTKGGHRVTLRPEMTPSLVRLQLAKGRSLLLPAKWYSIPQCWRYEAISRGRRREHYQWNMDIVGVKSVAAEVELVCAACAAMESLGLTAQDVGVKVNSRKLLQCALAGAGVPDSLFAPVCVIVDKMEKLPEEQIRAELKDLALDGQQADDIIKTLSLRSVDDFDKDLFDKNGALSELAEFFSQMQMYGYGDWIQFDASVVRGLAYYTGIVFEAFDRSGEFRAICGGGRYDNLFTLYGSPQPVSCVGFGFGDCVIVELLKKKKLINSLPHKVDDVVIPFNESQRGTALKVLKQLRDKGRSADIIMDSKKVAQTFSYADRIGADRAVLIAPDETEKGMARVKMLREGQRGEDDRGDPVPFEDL
UniProt Q4DA54, 1-478: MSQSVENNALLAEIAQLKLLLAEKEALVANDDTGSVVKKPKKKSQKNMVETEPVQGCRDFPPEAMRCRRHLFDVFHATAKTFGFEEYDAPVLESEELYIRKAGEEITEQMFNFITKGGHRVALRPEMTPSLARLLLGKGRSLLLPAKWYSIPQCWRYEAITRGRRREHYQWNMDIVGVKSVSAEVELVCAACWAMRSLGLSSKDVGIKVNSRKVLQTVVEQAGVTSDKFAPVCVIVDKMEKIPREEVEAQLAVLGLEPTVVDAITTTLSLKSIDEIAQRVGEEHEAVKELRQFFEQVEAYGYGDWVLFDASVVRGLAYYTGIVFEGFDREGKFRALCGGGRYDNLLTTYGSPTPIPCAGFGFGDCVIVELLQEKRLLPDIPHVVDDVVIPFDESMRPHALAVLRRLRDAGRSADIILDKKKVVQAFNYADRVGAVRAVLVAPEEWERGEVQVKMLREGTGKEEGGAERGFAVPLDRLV

LiHisRS: 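Histidine-tRNA ligase, Leishmania infantum (UniProt A4I591). Enzyme assay of histidyl-tRNA synthetase; the read-out is not stated. Compounds at 30 µM. The record gives no direction; compounds that gave an IC50 in retests scored well above the rest, so higher reads as stronger inhibition. The assay is labelled LdHisRS but filed under L. infantum. Size under these conditions: about 69,000 compounds, about 410 of them at 50% or above in at least one test.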
TcHisRS: 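Enzyme assay of histidyl-tRNA synthetase; the read-out is not stated. Target: Histidine-tRNA ligase, Trypanosoma cruzi CL Brener (UniProt Q4DA54). Compounds at 30 µM. Direction is inferred from retests: higher values go with stronger inhibition. Of about 69,000 compounds tested this way, about 31 (0.045%) reached 50% or more in at least one test.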

Each number is a percent effect as filed. The controls that fix the scale are not given in the record; negative values are as filed. The compounds are a random part of those screened.

compound: CCN(CC)S(=O)(=O)c1ccc(CNC(=O)N2CCCCCC2)cc1
LiHisRS: 15.18%
TcHisRS: 16.67%

compound: O=C(CNC1(c2ccc(Cl)cc2)CCOCC1)NC1CCCC1
LiHisRS: 9.735%
TcHisRS: 3.097%

compound: CCNC(=O)CCC(=O)NC1(c2cccc(Br)c2)CC1
LiHisRS: 23.29%
TcHisRS: 2.956%

compound: Cn1c(SCc2noc(-c3ccsc3)n2)nnc1C1CCS(=O)(=O)C1 (centres unmarked)
LiHisRS: 22.22%
TcHisRS: 2.02%

compound: CC(Cn1cccn1)NC(=O)Cc1cccs1 (centres unmarked)
LiHisRS: 25.68%
TcHisRS: -5.66%

compound: COc1ccccc1C1(CNCc2ccc(C#N)cc2)CCOCC1
LiHisRS: 60.44%
TcHisRS: 9.278%

compound: Cc1ccc(NC(=O)C2CSCN2C(=O)c2cnsn2)c(C)c1 (centres unmarked)
LiHisRS: 6.481%
TcHisRS: 2.053%

compound: Cc1cnc(C)c(Oc2ccc(Cl)c(CN3CCCC3)c2Cl)n1
LiHisRS: 17.74%
TcHisRS: 5.263%

compound: CNS(=O)(=O)c1ccc(CNC(=O)Nc2ccccn2)s1
LiHisRS: 3.896%
TcHisRS: 3.448%

compound: COc1cccc(-c2noc(-c3ccc(NCC(C)O)nc3)n2)c1OC (centres unmarked)
LiHisRS: 5.208%
TcHisRS: 4.469%

compound: CCn1cc(CNC(=O)CC(C)C)cn1
LiHisRS: 20%
TcHisRS: 6.211%

compound: O=C(NCC1CCCCO1)c1ccc(-c2ccco2)[nH]c1=O (centres unmarked)
LiHisRS: 14.67%
TcHisRS: 4.046%

compound: CCN(CC)c1ncc2c(O)nc(C3CCNCC3)cc2n1
LiHisRS: 10%
TcHisRS: 4.981%

compound: Cc1ccc2c(CC(=O)N3C[C@@H](O)[C@H](N(C)C)C3)coc2c1
LiHisRS: 7.092%
TcHisRS: 2.326%

compound: CC1(C)CC(N(Cc2cccnc2)Cc2cccc(F)c2)CC(C)(C)N1
LiHisRS: 15.94%
TcHisRS: 9.89%

compound: CCCS(=O)(=O)c1ccc(N2CCN(Cc3ccccc3)CC2)nn1
LiHisRS: 15.65%
TcHisRS: 3.093%

compound: Cn1ccc(C(=O)Nc2nc(-c3ccc4c(c3)CCO4)cs2)cc1=O
LiHisRS: 8.901%
TcHisRS: 24.06%

compound: NC(=O)c1cccc(CNC/C=C/c2ccccc2)c1
LiHisRS: 9.524%
TcHisRS: 9.091%

compound: CC(C)=CCN1C[C@H]2CC[C@@H]1CN(C(=O)c1ccc3c(c1)OCO3)C2
LiHisRS: 20.83%
TcHisRS: -7.729%

compound: CC(C(=O)NC1CC1)S(=O)(=O)Cc1noc(C(C)(C)C)n1 (centres unmarked)
LiHisRS: 22.86%
TcHisRS: 0%

compound: Cc1ccc(CN2CCNC(=O)C2CC(=O)N2CCSCC2)o1 (centres unmarked)
LiHisRS: 6.452%
TcHisRS: 7.143%

compound: Cc1ccc2c(n1)N(Cc1cccnc1)CCN(Cc1cnn(C)c1)C2
LiHisRS: 11.54%
TcHisRS: 12.85%

compound: COc1ccccc1N1CCC(NCc2c(C)noc2C)C1 (centres unmarked)
LiHisRS: 7.143%
TcHisRS: 1.064%

compound: Cc1ccccc1CC(=O)N(C)C1CCN(c2ccccn2)CC1
LiHisRS: 28.38%
TcHisRS: -1.132%

compound: CNC(=O)[C@@H]1CN(C(=O)C2CCC2)C[C@H]1c1ccnc(N2CCCC2)n1
LiHisRS: 14.77%
TcHisRS: 3.143%

compound: Cc1nc(CN(C)C2CCN(CC3CCOCC3)C2)no1 (centres unmarked)
LiHisRS: 11.61%
TcHisRS: 2.89%

compound: Cc1nnc(NC(=O)NCc2ccc(C)n2C)s1
LiHisRS: 31.34%
TcHisRS: 0%

compound: CCOC(=O)N1CCC2(CCNC2)C1 (centres unmarked)
LiHisRS: 13.59%
TcHisRS: 5.825%

compound: CCC1c2cccn2CCN1C(=O)c1ccc2nonc2c1 (centres unmarked)
LiHisRS: 16.35%
TcHisRS: 7.317%

compound: CCOC(=O)c1coc(N2CCN(Cc3cccc(OC)c3)C(=O)C2)n1
LiHisRS: 18.25%
TcHisRS: 4.706%

compound: O=C(c1ncoc1C1CC1)N1CCN(CCOc2ccccc2)CC1
LiHisRS: 6.993%
TcHisRS: 4.478%

compound: CC(C)(C)c1cc(CN2C[C@@H]3CC[C@H](C2)N(Cc2ccccn2)C3)n[nH]1
LiHisRS: 13.11%
TcHisRS: 12%

The last 4 entries again:

| compound | LiHisRS | TcHisRS |
|---|---|---|
| `CCC1c2cccn2CCN1C(=O)c1ccc2nonc2c1` (centres unmarked) | 16.35% | 7.317% |
| `CCOC(=O)c1coc(N2CCN(Cc3cccc(OC)c3)C(=O)C2)n1` | 18.25% | 4.706% |
| `O=C(c1ncoc1C1CC1)N1CCN(CCOc2ccccc2)CC1` | 6.993% | 4.478% |
| `CC(C)(C)c1cc(CN2C[C@@H]3CC[C@H](C2)N(Cc2ccccn2)C3)n[nH]1` | 13.11% | 12% |

Data taken from ChEMBL document CHEMBL3988442, “University of Dundee, Small-Polar-MMV Screening Library” (2021).